Reference: article doi:10.1101/2020.05.10.086702
These are yes or no findings as the source states them, for the method shown. Binding seen in cells or lysates may run through a third protein. Some binding calls cover weakened binding; strength is not graded here. Sequences can lack the tags named with a protein. One block for each binder: values may come before it.

Experiments:
[1] = molecular target: T1, Cep57L1 (centrosomal protein 57 kDa-like protein 1), full length, FLAG-tagged (human) (UniProt Q8IYX8); assay: co-IP
T1 sequence: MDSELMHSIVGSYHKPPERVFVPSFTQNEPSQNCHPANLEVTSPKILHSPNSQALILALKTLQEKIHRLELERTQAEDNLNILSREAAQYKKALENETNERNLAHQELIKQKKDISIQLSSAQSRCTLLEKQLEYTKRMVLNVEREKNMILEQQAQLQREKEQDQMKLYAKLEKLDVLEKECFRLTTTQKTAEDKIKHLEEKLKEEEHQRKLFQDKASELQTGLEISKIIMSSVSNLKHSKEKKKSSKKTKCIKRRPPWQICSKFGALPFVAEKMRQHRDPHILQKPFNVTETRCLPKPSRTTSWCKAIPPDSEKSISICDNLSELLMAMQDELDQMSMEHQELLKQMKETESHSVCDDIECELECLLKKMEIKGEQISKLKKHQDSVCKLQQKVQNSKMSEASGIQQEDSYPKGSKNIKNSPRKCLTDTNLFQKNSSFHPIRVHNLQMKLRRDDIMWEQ

[2] = molecular target: T2, Cep57L1 mutant lacking the PINC motif (Δ52-86 a.a.), FLAG-tagged (human) (UniProt Q8IYX8); assay: co-IP
T2 sequence: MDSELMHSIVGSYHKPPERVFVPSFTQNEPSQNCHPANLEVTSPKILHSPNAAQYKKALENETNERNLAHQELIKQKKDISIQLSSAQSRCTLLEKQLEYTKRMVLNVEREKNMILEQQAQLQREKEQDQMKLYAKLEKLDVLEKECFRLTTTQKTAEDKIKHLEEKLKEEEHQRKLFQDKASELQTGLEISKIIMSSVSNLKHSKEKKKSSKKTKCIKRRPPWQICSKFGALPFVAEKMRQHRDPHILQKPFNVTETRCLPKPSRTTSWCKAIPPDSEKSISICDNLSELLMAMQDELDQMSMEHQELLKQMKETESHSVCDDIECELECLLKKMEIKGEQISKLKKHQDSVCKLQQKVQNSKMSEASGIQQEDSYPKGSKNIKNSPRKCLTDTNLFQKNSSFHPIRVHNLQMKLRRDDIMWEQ

binding [1]: binds
binding [2]: binds
B1: GFP-PCNT (3132-3336 a.a.), C-terminal region of pericentrin containing the PACT domain (domain or fragment, UniProt O95613 3132-3336)
chain: MEKLYLHYLRAESFRKALIYQKKYLLLLIGGFQDSEQETLSMIAHLGVFPSKAERKITSRPFTRFRTAVRVVIAILRLRFLVKKWQEVDRKGALAQGKAPRPGPRARQPQSPPRTRESPPTRDVPSGHTRDPARGRRLAAAASPHSGGRATPSPNSRLERSLTASQDPEHSLTEYIHHLEVIQQRLGGVLPDSTSKKSCHPMIKQ

binding [1]: binds
B2: Cep57L1 (centrosomal protein 57 kDa-like protein 1), full length, FLAG-tagged (protein, UniProt Q8IYX8-1 1-460)
chain: T1 sequence
